Assay results taken from PubChem BioAssay AID2417 (National Center for Advancing Translational Sciences (NCATS), 2010).
In all, about 140,000 compounds went through this assay and about 4,300 (3.1%) were called active. Inconclusive means that the source gave no clear call. Such entries were picked first, then a sample of the others.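 The calls were made as follows: active = readout at or below -70, meaning at least 70% loss of cells showing the perinucleolar compartment, a nuclear body marking cancer cells; inconclusive = readout between -30 and a set limit; inactive = the rest.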

test: High Content Assay for Compounds that inhibit the Assembly of the Perinucleolar Compartment; details: PC3M PTB-GFP, PNC prevalence imaging, 16 h; at 10 µM; active compounds read low;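 also: plate controls were DMSO wells for no effect and camptothecin positive control wells for full effect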
Summary of the method: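 Read-out is percentage of cells bearing a perinucleolar compartment, from automated 20x imaging of fixed, Hoechst-stained PC3M PTB-GFP cells. Cells were seeded 4 h, then exposed 16 h to compound (23 nl of library stock) in duplicate plates.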

Structure (SMILES) | activity change (PNC), negative = inhibition
Cc1ccc(-c2nc3cc(C)ccc3o2)cc1 | inconclusive: -40.8%
CCn1cc(C(=O)NCCc2ccccc2)c(=O)c2cc(F)c(N3CCN(C)CC3)cc21 | inconclusive: -32%
O=C(NCCCN1CCOCC1)c1cc(Cl)ccc1[N+](=O)[O-] | inconclusive: -37.6%
O=C(Nc1ccc2c(c1)OCO2)c1c(F)c(F)c(F)c(F)c1F | inconclusive: -59.5%
COc1ccc(Cl)cc1C(=O)NNC(=O)c1cccnc1 | inconclusive: -31.2%
Cc1ccc(C(NC(=O)N2CC(C)OC(C)C2)C(Cl)Cl)cc1F (stereo unspecified) | inconclusive: -60.1%
COc1cccc(N2CCN(S(=O)(=O)c3ccc4nc(-c5ccccc5)[nH]c4c3)CC2)c1 | inconclusive: -40.5%
CCOC(=O)COc1cc2c(C(=O)OCC)c(C)oc2cc1Br | inconclusive: -59.5%
C=CCN=C(CC)C1=C(O)CCCC1=O | active: -109%
CC(C)NC(=O)NC(=O)CSc1nnc(COc2ccccc2F)n1C(C)C1CC2CCC1C2 (stereo unspecified) | inconclusive: -53.5%
O=C(Nc1cccc(NC(=O)c2ccccc2[N+](=O)[O-])n1)c1ccccc1[N+](=O)[O-] | inactive: 16.5%
O=C(NNC(=O)c1ccc(Cl)cc1Cl)Nc1ccccc1 | inactive: 46.2%
CCOC(=O)Cn1nc(C)c2c1CCCC2=O | inconclusive: -43.4%
COCC(=O)Nc1ccc(C(C)C)cc1 | inconclusive: -50.8%
CN(C)C(=O)N1CCC(C(=O)NCc2cccs2)CC1 | inconclusive: -47.7%
O=C(OC(C(=O)NCc1cccs1)c1ccccc1Cl)c1ccco1 (stereo unspecified) | inconclusive: -50.1%
COc1cc(C)c(S(=O)(=O)N2CCOCC2)cc1C | active: -100%
Cc1cc(NC(=S)Nc2ccccc2)ccc1Br | inactive: 31.4%
O=C(COc1ccc(C(=O)c2ccc(F)cc2)cc1)NCc1ccc(F)cc1 | inactive: 8.07%
CC(=O)c1c(N2CCOCC2)nc(=S)n(-c2ccccc2)c1C | inconclusive: -50%
Cc1cccc(C(=O)NC(=S)Nc2ccc(N3CCOCC3)cc2)c1 | inactive: -12%
O=C1c2cccc3cccc(c23)C(=O)N1c1ccncc1 | active: -100%
COc1ccc(CCNc2cc(C)nc3c(-c4ccc(Cl)cc4)c(C)nn23)cc1OC | inconclusive: -32.9%

Structure (SMILES) | activity change (PNC), negative = inhibition
CCOC(=O)c1c(C)n(-c2ccc(C)cc2)c2c(CC(C)=O)c(Br)c(OC)c(O)c12 | inactive: 35.2%
COc1ccc(C(=O)N=c2sc3c(C)ccc(OC)c3n2C)cc1 | inconclusive: -34.8%
CCC(C)NC(=O)C1=C(C)C(=O)OC12CCC(C)CC2 (stereo unspecified) | inactive: 6.02%
Cn1nc(CC(=O)Nc2ncc(Br)s2)c2ccccc2c1=O | active: -119%
CCOC(=O)C(C)Sc1ncc(-c2ccc(Cl)cc2)cn1 (stereo unspecified) | inactive: -19%
O=C(NNc1ccccc1[N+](=O)[O-])Nc1ccc(F)cc1 | inactive: -21.9%
CNC(=S)NCCc1ccc(OC)c(OC)c1 | inconclusive: -62%
CC12COC3(C(=O)Nc4ccc(F)cc4)CC1CCC32C (stereo unspecified) | inconclusive: -47.5%
COc1cc(C(=O)Nc2nc(-c3ccc(F)cc3)cs2)ccc1OCC(=O)N1CCOCC1 | inconclusive: -49.2%
O=P(O)(O)C(O)C(F)(F)C(F)(F)C(F)(F)C(F)F (stereo unspecified) | inconclusive: -33.5%
COc1ccc(CC(C)N2CCN(c3ccccc3OC)CC2)cc1OC (stereo unspecified) | inactive: 56.2%
Cc1cccc(OCC(=O)Nc2sc3c(c2C#N)CCC3)c1 | inconclusive: -57%
CC(=O)Nc1cc(C(C)(C)C)c(O)c(C(C)(C)C)c1 | inconclusive: -33.2%
N#Cc1cc(Oc2cccnc2)c(Oc2cccnc2)cc1C#N | active: -111%
CCOCCCNC(=O)c1ccc(NC(C)=O)cc1 | inconclusive: -30%
COc1ccc(S(=O)(=O)NCc2ccccc2)cc1 | inconclusive: -53.8%
O=C1c2ccccc2C(=O)N1CCCCSc1nnc(-c2ccc(OC(F)F)cc2)o1 | inconclusive: -38.9%
CCN(CC)c1ccc(/C=N/N=C(c2ccccc2)c2ccccc2)c(O)c1 | inconclusive: -37.8%
O=C(c1ccco1)N(Cc1ccc([N+](=O)[O-])cc1)c1ccc(Cl)cc1 | inactive: 0.591%
CCCCCCNC(=O)Cc1c(O)c2ccccc2[nH]c1=O | inconclusive: -57.4%
Cc1nc(SCC(=O)c2ccccc2)n[nH]1 | inconclusive: -33.9%
CCOc1cc(C(=O)Nc2ccc3c(c2)OCO3)ccc1OCCOc1ccccc1Cl | active: -86.9%
CCOC(=O)c1oc2ccc(Br)cc2c1NC(=O)CN1CCN(C)CC1 | inactive: -12%

Reformatted as tab-separated lines: 3 of the compounds above.
Structure (SMILES)	activity change (PNC), negative = inhibition
N#Cc1cc(Oc2cccnc2)c(Oc2cccnc2)cc1C#N	active: -111%
CCOCCCNC(=O)c1ccc(NC(C)=O)cc1	inconclusive: -30%
COc1ccc(S(=O)(=O)NCc2ccccc2)cc1	inconclusive: -53.8%
